Strings that start with PEPTIDE1 are HELM notation: dots part the residues, brackets hold end groups and non-standard residues.
Assay: peptide synthesis
Conditions: late stage modification step

| Substance | step yield (acetate) [%] | also measured |
| --- | --- | --- |
| Boc-Tyr-D-AMSB-Phe-MeβAla-OH | 99.5 | – |
| H2NC(NH)-Tyr-(R)-PGPA-Phe-MeβAla-OH·diacetate | – | step yield (diacetate): 26.0% |
| H2NC(NH)-Tyr-D-(N-Me)Arg-Phe-MeβAla-OH·diacetate | 83 | – |
| PEPTIDE1{[Amidino].[DMT].[dR].F.[MebAla]}$$$$V2.0 | – | step yield (on protected peptide, diacetate): 83% |

Reference: EP0850950A1 (DAIICHI PHARMACEUTICAL CO., LTD., priority 1995, dated 1998)
